From the supplement of paper PMC4683952
The other results are listed elsewhere or left out. No rule for the calls is given here. Repeats in this data set agree poorly, so a single value says little.

Test system: Lgr5 (MarsCy1-Lgr5-EGFP, U2OS)
Test: cell-surface Lgr5 expression (SCi1 fluorescence, background-subtracted) relative to WT DMSO (fold of DMSO control); higher = more Lgr5 at the plasma membrane
Details: U2OS MarsCy1-Lgr5-EGFP stable; treatment time: overnight; library: Kinase Gold; 20 µM
Experimental: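 U2OS cells stably expressing MarsCy1-Lgr5-EGFP in 384-well plates were incubated overnight with single-dose compounds. Cell-surface Lgr5 was stained with SCi1 and scanned at 700 nm on a LI-COR Odyssey. Intensity was background-subtracted (parental U2OS) and expressed relative to WT DMSO wells.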

cell-surface Lgr5 expression, inactive:
O=C(Nc1ccc2c(c1)OCCO2)c1ccc(Cl)cc1 1.05, NC(=O)Cn1c2[n+](c3ccccc31)CC(O)CS2 (stereo not given) 0.891, CC(=O)Nc1c(O)nc(SCc2ccccc2C#N)[nH]c1=O 0.739, COc1ccc(Nc2nc(CC(=O)O)cs2)cc1 0.854, Cc1nnc(NC(=O)c2c(O)c3ccccc3n(C)c2=O)s1 0.752, Cc1ccc(C(=O)Nc2ncc([N+](=O)[O-])s2)cc1C 0.705, CC(=O)Nc1c(C(=O)O)[nH]c2ccc(F)cc12 0.905, Cc1nc(-c2ccc(NC(=O)/C=C\C(=O)O)cc2)cs1 0.971, O=C(NNC(=S)NC(=O)c1cccnc1)c1ccccc1 0.645, O=C(Cc1ccccc1)NNC(=O)c1c(O)c2ccccc2[nH]c1=O 0.688, Cc1ccc(NC(=S)NC(=O)c2ccc(Cl)cc2Cl)nc1 0.948, COc1ccccc1NC(=O)c1cc2ccc(O)cc2oc1=O 0.71, COc1ccc(C(=O)NC(=S)Nc2cccnc2)cc1OC 0.93, CCOC(=O)c1c(CNC)n(C)c2cc(Br)c(O)cc12 1.12, CCn1c(=O)c(C(=O)NNC(=O)C(C)C)c(O)c2ccccc21 0.771, COc1ccccc1NC(=O)Nc1cc(C)ccn1 0.636, COc1ccc(OC)c(N/C(C)=C/C(=O)c2ccncc2)c1 0.611, CC(C)(C)NC(=O)C(=O)NNC(=O)c1ccco1 0.557, Cc1cccc(NC(=O)c2c(O)c3ccccc3[nH]c2=O)c1 0.909, CCC(=O)Nc1ccc(NC(=O)c2oc3ccccc3c2C)cc1 0.694, COc1ccc(OC)c(/C=C/C(=O)c2ccc3c(c2)OCCO3)c1 0.535, COC(=O)c1c(N)sc(C(=O)Nc2cccc(Cl)c2C)c1C 0.946, Cc1cn2c3c(=O)[nH]c(=O)n(C)c3nc2n1-c1ccccc1 0.931, NS(=O)(=O)c1ccc(N/C=C\C(=O)c2ccc3c(c2)OCO3)cc1 0.904, O=C(Nc1ccccc1)Nc1nnc(Cc2ccccc2)s1 0.81, O=C(COc1ccccc1)NNC(=O)c1cc2ccccc2o1 0.875, CC(=O)NNC(=O)C(=O)c1c[nH]c2ccccc12 0.632, CC(=O)Nc1c(C(=O)O)[nH]c2ccccc12 0.894, NNc1nc(Nc2cccc(Cl)c2)nc(N2CCOCC2)n1 0.441, O=C1SC(Nc2ccc3ccccc3c2)C(=O)N1c1ccccc1 (stereo not given) 1.01, O=C(O)c1cccc2c1NC(c1cccc([N+](=O)[O-])c1)C1CC=CC21 (stereo not given) 0.716, Cc1ccc(Cc2ccc(C(=O)NNC(N)=S)o2)cc1 0.958, CCn1c(=O)c(C(=O)Nc2cccc(F)c2)c(O)c2ccccc21 0.886, CC(=O)CSc1nc2c(c(=O)[nH]c(=O)n2C)n1Cc1ccccc1 0.953, COC(=O)c1ccc(NC(=S)NC(=O)c2cccnc2)cc1 0.619, C/C(=C\C(=O)c1cccnc1)NNC(=O)c1ccc(C)cc1 0.713, CCn1cc(C(=O)O)c(=O)c2cc(F)c(N3CCN(C)CC3)cc21 0.974, O=C(/C=C\Nc1ccc2[nH]ncc2c1)c1ccco1 0.659, CC1(CC(=O)NNC(=S)Nc2ccccc2)OCCO1 0.856, CCOC(=O)/C(=C\c1ccc([N+](=O)[O-])o1)NC(=O)c1ccccc1 1.07
